# PubChem BioAssay (Tox21)
# Several values for one entry are separate records, joined by “and”; a condition that tells them apart may be missing. Equal values may be shown once. This list was built around the results that the source calls inconclusive (neither active nor inactive); the mix of calls is not that of the screen. Potencies beside an inconclusive call are fits to weak or partial responses and may not hold up. Activity calls are given as the source filed them. The call rests on the fitted dose curve; in most records, active means well fitted activation curve with a large enough effect in the repeat runs; inconclusive means weak or mixed curves; inactive means flat fitted curve, though single readings scatter.
# Experiment: A CellTox Green Cytotoxicity Assay to monitor cytotoxicity in HEK293 cells - 24 hour (AID 1224875); further: nearly all actives have a fitted effect of over 45% in size
# Conditions: CellTox Green fluorescence; series mostly up to 76.8 µM
# Description: National Center for Advancing Translational Sciences [NCATS]
# NIH Chemical Genomics Center [NCGC]
# U.S. Environmental Protection Agency [EPA]
# National Institutes of Environmental Health Sciences [NIEHS]
# National Toxicology Program [NTP]
# Cell-based models are critical for drug discovery. Determining the natural cytotoxic effects resulting from test compounds is an essential research activity. A CellTox Green Cytotoxicity Assay to monitor cytotoxicity in real time of continues cell culture during 40 hours of the compound treatment was used to screen Tox21 10K library compounds in Hek293 cells. CellTox Green Cytotoxicity Assay is a nonlytic, homogeneous, biofluorescent method to measure cytotoxicity in cell culture after experimental manipulation. The assay system uses a proprietary asymmetric cyanine dye that is excluded from viable cells but preferentially stains the dead cell's DNA. […] Viable cells produce no appreciable increases in fluorescence. Therefore, the fluorescence signal produced by the binding interaction with dead cell DNA is proportional to cytotoxicity.
# The mixture of Hek293 cell suspension and reagents were dispensed at 600cells/6 ul/well in 1536-well tissue culture treated black solid bottom plates using a Multidrop dispenser. After the assay plates were incubated at a 37 C/5% CO2 incubator for 5 hours, 23 nL of compounds dissolved in DMSO, positive and negative controls was transferred to the assay plate by a pintool work station. The plates were incubated at 37 C for 40 hours. The fluorescence intensity were measured at 0h, 8h, 16h, 24h, 32h and 40h time points using ViewLux plate reader during compound treatment.
# Potency means the concentration at half of the fitted maximal effect.
row,Compound,Potency
1,CCCCCCCC(=O)O,"inconclusive: 5.3 µM [activator, single point]"
2,CN1CC(=O)NC1=N,inactive
3,CCCCS,"inconclusive: 63.1 µM [activator, single point]"
4,Cn1cc(S(C)=O)c(=O)c2ccc(F)cc21 (stereo not given),inactive
5,O=S(=O)(O)c1cccc2c(S(=O)(=O)O)cccc12,"inconclusive: 54.8 µM [activator, single point]"
6,CCOC(C)OCC,inactive
7,O=Cc1ccccc1Cl,"inconclusive: 54.1 µM [activator, single point]"
8,CC1(COc2ccc(CC3SC(=O)NC3=O)cc2)CCCCC1 (stereo not given),"inconclusive: 30.1 µM [activator, single point]"
9,Nc1ccn([C@@H]2O[C@H](CO)[C@@H](O)C2(F)F)c(=O)n1,inactive
10,COC(=O)CSc1cc(N=c2sc(=O)n3n2CCCC3)c(F)cc1Cl,"inconclusive: 6.92 µM [activator, partial curve, poor fit]"
11,CCN(CC)S(=O)(=O)c1ccc(C(=O)O)cc1,"inconclusive: 10.7 µM [activator, single point]"
12,C[Si]1(C)O[Si](C)(C)O[Si](C)(C)O[Si](C)(C)O1,inactive
13,COc1ccc2nc(SCc3ncc(C)c(OC)c3C)[nH]c2c1,"inconclusive: 15.1 µM [activator, partial curve, poor fit]"
14,COc1nccnc1CC(C)C,inactive
15,CC1(C)CC(O)CC(C)(C)N1[O],inactive
16,CC12CCC(C1)C(C)(C)C2O (stereo not given),"inconclusive: 38.9 µM [activator, partial curve]"
17,c1ccc2c(c1)Cc1ccccc1-2,"inconclusive: 39.5 µM [activator, partial curve] and inconclusive: 61.6 µM [activator, partial curve, poor fit]"
18,C=C(C)C(=O)NCCCN(C)C,active: 0.0347 µM
19,Oc1cc2ccccc2cc1O,"inconclusive: 54.9 µM [activator, single point]"
20,C1=CCCC1,"inconclusive: 54.9 µM [activator, single point]"

row,Compound,Potency
1,CCCN(C1CCN(C(=O)C2CCNCC2)CC1)[C@@H]1CCc2ccc(OC)cc2C1,"inconclusive: 54.9 µM [activator, single point]"
2,CC1(C)COCN1,"inconclusive: 21.9 µM [activator, single point]"
3,Nc1ccc(S(=O)(=O)O)c(N)c1,"inconclusive: 54.9 µM [activator, single point]"
4,O=[N+]([O-])c1cccc(Cl)c1Cl,"inconclusive: 49 µM [activator, single point]"
5,C[C@](N)(Cc1ccc(O)c(O)c1)C(=O)O,"inconclusive: 22 µM [activator, single point]"
6,C[Si](C)(C)O[Si](C)(C)O[Si](C)(C)C,inactive
7,CC/C=C\CCCCCCCCCCOC(C)=O,inactive
8,CC1(C)C(=O)N(CO)C(=O)N1CO,"inconclusive: 21.9 µM [activator, single point]"
9,O=C1NC2NC(=O)NC2N1 (stereo not given),inactive
10,CCOc1nc2cccc(C(=O)O)c2n1Cc1ccc(-c2ccccc2-c2nn[nH]n2)cc1,inactive
11,CC(C)(C)NC[C@H](O)COc1nsnc1N1CCOCC1,"inconclusive: 3.38 µM [activator, partial curve, poor fit]"
12,COC(OC)(C(=O)c1ccccc1)c1ccccc1,inactive
13,CCO[Si](C)(C)OCC,inactive
14,CC(C)(C)NC[C@H](O)COc1cccc2c1CCCC2=O,"inconclusive: 9.52 µM [activator, single point]"
15,CNC(=O)Oc1ccc2c(c1)[C@]1(C)CCN(C)[C@@H]1N2C,"inconclusive: 26.8 µM [activator, partial curve, poor fit]"
16,O=C(O)CCCCCC(=O)O,"inconclusive: 22 µM [activator, single point]"
17,COc1ccc(C)cc1N,"inconclusive: 26.6 µM [activator, partial curve]"
18,CC1(C)SC(C)(C)SC(C)(C)S1,"inconclusive: 15.5 µM [activator, partial curve, poor fit]"
19,CC(C)OC(=O)OCOP(=O)(CO[C@H](C)Cn1cnc2c(N)ncnc21)OCOC(=O)OC(C)C,inactive
20,O=C(O)c1ccc[n+]([O-])c1,inactive

# 2 entries from above, with bars between the fields.
row | Compound | Potency
4 | O=[N+]([O-])c1cccc(Cl)c1Cl | inconclusive: 49 µM [activator, single point]
5 | C[C@](N)(Cc1ccc(O)c(O)c1)C(=O)O | inconclusive: 22 µM [activator, single point]
